PubChem BioAssay AID1224826 | NIAID – 2016
Test: 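Knock-downs that raise or lower Tnf reporter signal after endotoxin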 (primary screen). Cell system: RAW264.7 G9 macrophages from mouse bearing reporters for p65 (GFP) and the Tnf promoter (mCherry). Reagent: siRNA pool against mouse genes, 100 nM. Duration: 16 h of LPS stimulation, after 2 days of siRNA transfection. Treatment: bacterial lipopolysaccharide (Salmonella minnesota R595), 10 ng/ml. Measured: 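Nuclear mCherry signal of the Tnf promoter reporter measured by imaging after background removal, scaled to each plate median and turned into robust z-scores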. Direction: Tnf reporter robust z-score: higher = stronger Tnf promoter reporter signal after LPS; Tnf reporter intensity: higher = stronger Tnf promoter reporter signal. Rule for the call: 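Called active when robust z-score is at most -1.3, matching the median of the Tlr4 knock-down control, or over 3; control wells and wells with under 50 cells never active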. Meaning of the calls: active = Tnf reporter clearly lowered or raised; inactive = no clear change in Tnf reporter.
Shown is a random part of about 17,000 deposited reagents. In the full data, about 1,110 (6.6%) are marked active. 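Active means lowered or raised reporter signal; replicate intensities are raw and not normalised per plate.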 Reagents against one gene are numbered here. Reagent sequences are not shown.

| gene knocked down | reagent no. | Tnf reporter robust z-score | fewer than 50 cells in well | Tnf reporter intensity, replicate 1 | Tnf reporter intensity, replicate 2 | activity call |
| --- | --- | --- | --- | --- | --- | --- |
| Inpp5f | 1 | 0.02 | enough cells in well | 232 | 158 | inactive |
| Obox3 | 1 | -0.84 | enough cells in well | 149 | 96.2 | inactive |
| X99300 (retired record) | 1 | 2.77 | enough cells in well | 271 | 206 | inactive |
| Lrrc49 | 1 | 0.6 | enough cells in well | 304 | 132 | inactive |
| Aph1c | 1 | 0.18 | enough cells in well | 261 | 86.4 | inactive |
| Mapkbp1 | 1 | 0.19 | enough cells in well | 226 | 136 | inactive |
| Senp1 | 1 | 1.22 | enough cells in well | 434 | 270 | inactive |
| Rhobtb1 | 1 | -0.46 | enough cells in well | 243 | 186 | inactive |
| Or52h9 | 1 | -0.04 | enough cells in well | 105 | 107 | inactive |
| Irf5 | 1 | 0.51 | enough cells in well | 301 | 161 | inactive |
| Tmco6 | 1 | – | fewer than 50 cells per well; well left out of calls | 142 | 42.3 | inactive |
| Mapkap1 | 1 | -0.34 | enough cells in well | 196 | 152 | inactive |
| Mapkap1 | 2 | -0.98 | enough cells in well | 208 | 112 | inactive |
| Psme2 | 1 | – | fewer than 50 cells per well; well left out of calls | 12 | 139 | inactive |
| Ercc6l | 1 | 0.03 | enough cells in well | 202 | 217 | inactive |
| P2ry1 | 1 | 0.47 | enough cells in well | 350 | 152 | inactive |
| Trappc8 | 1 | -0.32 | enough cells in well | 167 | 154 | inactive |
| Tsga10 | 1 | -0.42 | enough cells in well | 98.1 | 79.6 | inactive |
| Lpcat4 | 1 | 0.18 | enough cells in well | 229 | 189 | inactive |
| Slc26a6 | 1 | -0.19 | enough cells in well | 106 | 82.9 | inactive |
| Csmd1 | 1 | -0.55 | enough cells in well | 124 | 171 | inactive |
| Nkain1 | 1 | – | fewer than 50 cells per well; well left out of calls | 216 | 80.5 | inactive |
| Rab34 | 1 | 2.13 | enough cells in well | 209 | 237 | inactive |
| Tcf7l1 | 1 | -1.81 | enough cells in well | 95.9 | 57.8 | active |
| Mdh1b | 1 | -0.67 | enough cells in well | 132 | 64 | inactive |
| Cyp51 | 1 | -1.29 | enough cells in well | 121 | 81.3 | inactive |
| Npm1 | 1 | -0.97 | enough cells in well | 192 | 99.6 | inactive |
| Or1j13 | 1 | 0.21 | enough cells in well | 205 | 121 | inactive |
| Naa35 | 1 | -1.09 | enough cells in well | 143 | 72.9 | inactive |
| Clpb | 1 | 1.61 | enough cells in well | 154 | 159 | inactive |
| Mrm2 | 1 | – | fewer than 50 cells per well; well left out of calls | 68.2 | 28.6 | inactive |
| Cald1 | 1 | 1.87 | enough cells in well | 261 | 297 | inactive |
| Galm | 1 | 0.64 | enough cells in well | 355 | 130 | inactive |
| Myl9 | 1 | -0.03 | enough cells in well | 288 | 180 | inactive |
| Sry | 1 | 0.89 | enough cells in well | 130 | 130 | inactive |
| Tet3 | 1 | 0.3 | enough cells in well | 204 | 255 | inactive |
| Dync2i1 | 1 | 0.69 | enough cells in well | 334 | 117 | inactive |
| Fam220a | 1 | 0.71 | enough cells in well | 213 | 75.7 | inactive |
| Fubp1 | 1 | -0.06 | enough cells in well | 225 | 225 | inactive |
| Drap1 | 1 | -0.6 | enough cells in well | 144 | 206 | inactive |
| Pias3 | 1 | -0.3 | enough cells in well | 240 | 156 | inactive |
| Dnaaf6 | 1 | 0.98 | enough cells in well | 265 | 142 | inactive |
| Ccl4 | 1 | 0.07 | enough cells in well | 174 | 185 | inactive |
| Oprm1 | 1 | 0.95 | enough cells in well | 397 | 61.9 | inactive |
| Map1lc3a | 1 | – | fewer than 50 cells per well; well left out of calls | 138 | 66.8 | inactive |
| Thoc3 | 1 | -0.87 | enough cells in well | 72.9 | 74.6 | inactive |
| Txnrd3 | 1 | -0.29 | enough cells in well | 220 | 191 | inactive |
| Grin2a | 1 | 0.24 | enough cells in well | 273 | 259 | inactive |
| Vmn1r14 | 1 | 3.76 | enough cells in well | 198 | 261 | active |
| H2-M10.4 | 1 | 1.91 | enough cells in well | 337 | 315 | inactive |
| Klhl23 | 1 | -0.86 | enough cells in well | 74.3 | 114 | inactive |
| Copb2 | 1 | – | fewer than 50 cells per well; well left out of calls | 95.5 | 109 | inactive |
| Rmi1 | 1 | 3.07 | enough cells in well | 493 | 111 | active |
| Slc2a6 | 1 | – | fewer than 50 cells per well; well left out of calls | 133 | 65.9 | inactive |
| Tex261 | 1 | 4.04 | enough cells in well | 264 | 232 | active |
| Dctn1 | 1 | 0.02 | enough cells in well | 201 | 266 | inactive |
| Exosc10 | 1 | -0.08 | enough cells in well | 227 | 122 | inactive |
| Mmp28 | 1 | 0.31 | enough cells in well | 283 | 234 | inactive |
